Source: article PMC8049018, “A MIF‐Derived Cyclopeptide that Inhibits MIF Binding and Atherogenic Signaling via the Chemokine Receptor CXCR2” (Chembiochem, 2020)
No constants are given. Whether binding was seen depends on the method and setting.

Chains of the proteins cited; added tags and fusions are not shown.
UniProt P25025: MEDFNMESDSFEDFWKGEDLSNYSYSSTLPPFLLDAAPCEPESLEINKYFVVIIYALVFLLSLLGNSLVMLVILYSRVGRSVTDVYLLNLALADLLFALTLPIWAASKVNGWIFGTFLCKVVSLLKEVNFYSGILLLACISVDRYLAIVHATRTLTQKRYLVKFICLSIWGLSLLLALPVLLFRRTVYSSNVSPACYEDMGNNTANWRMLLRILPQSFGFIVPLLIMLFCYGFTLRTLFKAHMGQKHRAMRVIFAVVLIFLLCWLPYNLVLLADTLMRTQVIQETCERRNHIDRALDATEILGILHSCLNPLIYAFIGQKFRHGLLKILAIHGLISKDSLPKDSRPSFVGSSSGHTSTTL

Key:
[1] = target: T1, recombinant human macrophage migration inhibitory factor (MIF) (human) (UniProt P14174); assay: condition: up to 1000-fold molar excess over 10 nM Alexa-MIF; other fluorescence titration; Alexa-MIF 10 nM mixed with MIF(47–56) at ratios 1:0.1 to 1:1000; 10 mM sodium phosphate pH 7.4, 1 % HFIP; room temperature; excitation 492 nm, emission at 519 nm; both purified
T1 sequence (chain, Alexa Fluor-488 label (Alexa-MIF, in the fluorescence titration)): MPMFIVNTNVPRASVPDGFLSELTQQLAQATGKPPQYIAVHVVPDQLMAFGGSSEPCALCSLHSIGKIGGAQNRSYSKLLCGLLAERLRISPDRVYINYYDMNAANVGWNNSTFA

human CXCR2 (human) = human CXCR2 (human) (UniProt P25025); assay: label-free dynamic mass redistribution (DMR); HEK293-CXCR2 transfectants on fibronectin-coated label-free plates, against non-transfected cells; peptides at 500 μM (MIF(47–56) also at 100, 200, 400 μM); 20 mM HEPES, 1 % DMSO in HBSS pH 7.4; room temperature; shift of resonant wavelength Δpm as a measure of binding; only the binder purified

| Binder | binding [1] | binding (human CXCR2 (human)) |
| --- | --- | --- |
| LMAFGGSSEP (N-terminally acetylated; C-terminally amidated) [MIF(47–56)] | no binding | – |
| SFESGPAGML (N-terminally acetylated; C-terminally amidated) [scrambled control peptide of MIF(47–56)] | – | no binding (tested: 500 μM) |
